Results are given in words; binding and its absence hold for the method and conditions named. Binding seen in cells or lysates may run through a third protein. A result given as binding can be weak or reduced; the word gives no strength.
Target: kinase-deficient MAP4K4 variant (K54A in the text, K54R in the legend) (human) (UniProt O95819)
Experiment: co-IP; cotransfected cells lysed in IPB buffer (137 mM NaCl, 20 mM Tris pH 7.5, 1% NP-40, 10% glycerol); immunoprecipitation with anti-FLAG, anti-HA or anti-MAP4K4 antibody (control IgG), immunoblot

Amino acid sequences for entries named in this document (tags omitted). A change or cut given only in a name is not applied to a line headed by its entry.
UniProt O95819: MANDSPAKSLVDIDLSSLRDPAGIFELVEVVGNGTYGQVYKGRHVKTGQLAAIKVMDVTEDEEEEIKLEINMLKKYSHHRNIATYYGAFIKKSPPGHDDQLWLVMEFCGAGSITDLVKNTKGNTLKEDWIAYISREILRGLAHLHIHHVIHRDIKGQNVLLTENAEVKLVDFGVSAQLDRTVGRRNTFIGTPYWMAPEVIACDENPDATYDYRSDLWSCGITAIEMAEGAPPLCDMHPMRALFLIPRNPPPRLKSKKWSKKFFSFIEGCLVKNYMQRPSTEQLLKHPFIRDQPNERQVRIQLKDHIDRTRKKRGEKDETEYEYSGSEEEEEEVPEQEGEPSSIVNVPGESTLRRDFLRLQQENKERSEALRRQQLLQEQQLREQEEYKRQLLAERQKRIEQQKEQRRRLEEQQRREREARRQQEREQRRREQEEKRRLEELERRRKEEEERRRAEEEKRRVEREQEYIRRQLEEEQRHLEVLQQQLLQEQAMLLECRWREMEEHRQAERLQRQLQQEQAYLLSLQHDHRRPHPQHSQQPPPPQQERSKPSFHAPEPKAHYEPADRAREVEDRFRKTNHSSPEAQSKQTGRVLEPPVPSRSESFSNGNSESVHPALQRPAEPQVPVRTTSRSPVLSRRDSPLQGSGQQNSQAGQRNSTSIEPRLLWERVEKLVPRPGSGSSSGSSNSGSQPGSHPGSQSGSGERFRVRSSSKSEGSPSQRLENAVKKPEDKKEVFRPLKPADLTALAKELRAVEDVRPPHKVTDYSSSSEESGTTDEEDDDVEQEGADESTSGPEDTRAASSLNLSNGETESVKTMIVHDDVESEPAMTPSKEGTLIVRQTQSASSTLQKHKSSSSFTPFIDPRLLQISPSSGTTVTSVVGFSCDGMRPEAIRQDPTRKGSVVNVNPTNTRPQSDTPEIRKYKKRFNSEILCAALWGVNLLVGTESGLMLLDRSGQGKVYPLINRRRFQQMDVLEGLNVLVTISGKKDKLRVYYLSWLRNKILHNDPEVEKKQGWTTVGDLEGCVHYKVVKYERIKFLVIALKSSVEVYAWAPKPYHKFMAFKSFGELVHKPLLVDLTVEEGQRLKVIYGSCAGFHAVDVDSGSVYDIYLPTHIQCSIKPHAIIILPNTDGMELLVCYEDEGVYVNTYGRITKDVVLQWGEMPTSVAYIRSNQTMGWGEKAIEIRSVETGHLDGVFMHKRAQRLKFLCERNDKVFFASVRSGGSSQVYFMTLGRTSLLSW
UniProt Q14289: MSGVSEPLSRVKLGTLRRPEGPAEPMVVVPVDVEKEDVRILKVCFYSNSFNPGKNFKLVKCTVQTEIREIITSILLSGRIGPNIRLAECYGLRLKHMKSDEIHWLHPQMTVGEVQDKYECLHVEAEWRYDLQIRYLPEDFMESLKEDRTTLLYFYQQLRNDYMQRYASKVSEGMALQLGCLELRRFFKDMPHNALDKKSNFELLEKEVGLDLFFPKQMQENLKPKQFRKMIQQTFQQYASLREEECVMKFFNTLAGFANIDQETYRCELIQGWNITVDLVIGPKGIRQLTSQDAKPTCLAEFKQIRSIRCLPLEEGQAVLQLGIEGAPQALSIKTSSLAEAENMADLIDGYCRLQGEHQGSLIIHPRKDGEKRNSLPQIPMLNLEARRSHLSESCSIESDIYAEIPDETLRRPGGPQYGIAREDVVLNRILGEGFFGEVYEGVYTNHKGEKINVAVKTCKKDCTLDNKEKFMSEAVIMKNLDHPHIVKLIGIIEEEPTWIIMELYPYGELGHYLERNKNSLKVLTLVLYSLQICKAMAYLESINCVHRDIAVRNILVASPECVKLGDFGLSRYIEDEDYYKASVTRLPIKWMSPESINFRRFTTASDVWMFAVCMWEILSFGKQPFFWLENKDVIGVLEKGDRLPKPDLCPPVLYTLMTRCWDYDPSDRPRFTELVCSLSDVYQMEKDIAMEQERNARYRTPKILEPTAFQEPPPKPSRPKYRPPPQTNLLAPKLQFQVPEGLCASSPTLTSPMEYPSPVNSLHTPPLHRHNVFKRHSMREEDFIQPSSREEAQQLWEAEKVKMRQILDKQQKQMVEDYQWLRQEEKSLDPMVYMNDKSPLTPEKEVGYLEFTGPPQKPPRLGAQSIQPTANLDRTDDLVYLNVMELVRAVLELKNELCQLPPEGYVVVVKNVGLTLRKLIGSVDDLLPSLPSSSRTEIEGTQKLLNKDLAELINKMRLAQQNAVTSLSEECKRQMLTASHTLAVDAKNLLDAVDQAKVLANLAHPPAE

## FLAG-tagged Pyk2 (wild type) (from UniProt Q14289 1-1009)
  binding: binds
